Assay results: publication PMC9909993
These are yes or no findings as the source states them, for the method shown. Binding seen in cells or lysates may run through a third protein. Some results given as binding are weak or reduced against the parent protein; the word gives no strength.

Amino acid sequences for entries named in this document (tags omitted).
UniProt P49736: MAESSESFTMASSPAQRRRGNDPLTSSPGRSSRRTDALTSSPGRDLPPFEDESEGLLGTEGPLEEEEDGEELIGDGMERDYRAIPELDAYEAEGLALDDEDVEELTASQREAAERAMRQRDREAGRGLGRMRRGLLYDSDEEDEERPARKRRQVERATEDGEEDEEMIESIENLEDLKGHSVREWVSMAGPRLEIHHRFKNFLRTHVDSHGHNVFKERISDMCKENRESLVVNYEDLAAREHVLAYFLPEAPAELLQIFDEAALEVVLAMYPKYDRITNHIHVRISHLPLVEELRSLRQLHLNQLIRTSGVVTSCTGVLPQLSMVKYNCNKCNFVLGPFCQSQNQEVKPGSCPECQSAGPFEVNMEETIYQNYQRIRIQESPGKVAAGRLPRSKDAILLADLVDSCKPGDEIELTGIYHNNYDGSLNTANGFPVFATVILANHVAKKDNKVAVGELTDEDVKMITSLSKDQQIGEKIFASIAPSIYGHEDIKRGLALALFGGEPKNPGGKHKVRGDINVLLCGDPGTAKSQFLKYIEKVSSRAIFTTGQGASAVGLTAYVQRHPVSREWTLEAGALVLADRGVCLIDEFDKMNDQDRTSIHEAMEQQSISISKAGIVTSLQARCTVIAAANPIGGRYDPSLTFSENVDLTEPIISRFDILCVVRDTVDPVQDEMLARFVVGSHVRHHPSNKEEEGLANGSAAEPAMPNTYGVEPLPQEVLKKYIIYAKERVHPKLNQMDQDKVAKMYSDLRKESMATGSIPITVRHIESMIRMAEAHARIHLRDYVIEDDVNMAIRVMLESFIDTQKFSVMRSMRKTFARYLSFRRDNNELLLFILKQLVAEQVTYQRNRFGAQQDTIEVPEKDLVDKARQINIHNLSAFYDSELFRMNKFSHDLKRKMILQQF

Biological target: minichromosome maintenance 2 (MCM2) (human (endogenous in H9 hESCs)) (UniProt P49736)
Experiment: co-IP; lysate of H9 hESCs treated with siControl or siESRG; primary antibody or mouse IgG for 4 h, protein A/G PLUS beads overnight, washed at least three times with lysis buffer; precipitating antibody not told

B1: TRAIP (protein, UniProt Q9BWF2 1-469)
chain: MPIRALCTICSDFFDHSRDVAAIHCGHTFHLQCLIQWFETAPSRTCPQCRIQVGKRTIINKLFFDLAQEEENVLDAEFLKNELDNVRAQLSQKDKEKRDSQVIIDTLRDTLEERNATVVSLQQALGKAEMLCSTLKKQMKYLEQQQDETKQAQEEARRLRSKMKTMEQIELLLQSQRPEVEEMIRDMGVGQSAVEQLAVYCVSLKKEYENLKEARKASGEVADKLRKDLFSSRSKLQTVYSELDQAKLELKSAQKDLQSADKEIMSLKKKLTMLQETLNLPPVASETVDRLVLESPAPVEVNLKLRRPSFRDDIDLNATFDVDTPPARPSSSQHGYYEKLCLEKSHSPIQDVPKKICKGPRKESQLSLGGQSCAGEPDEELVGAFPIFVRNAILGQKQPKRPRSESSCSKDVVRTGFDGLGGRTKFIQPTDTVMIRPLPVKPKTKVKQRVRVKTVPSLFQAKLDTFLWS
  binding: binds
